From paper PMC7698760 (2020) come the findings set out here.

This data set in a line: general procedure: solution-phase peptide synthesis; DCC/HOSu (DCC/DMAP for ester bonds). The following applies: late stage modification step, hydrochloride.

Boc-Orn(Boc)-Orn-Phe-COOH returned a step yield of 89.4%.
